Laboratory results from PubChem BioAssay AID588497 (NMMLSC, 2011).
The campaign covered roughly 360,000 compounds. About 780 (0.22%) were called active. Inconclusive results, whose numbers are uncertain, are shown with a selection of clear calls. Rule as the data show it: active = inhibition above about 35% (passing the limit was not always enough); inconclusive = no clear call, values can overlap the other calls.

The compounds below were run on Botulinum neurotoxin type F light chain protease (Clostridium botulinum) (assay: BoNT/F light chain protease inhibitors, primary screen, biochemical, flow cytometry, MLPCN library (AID 588497; also: plate controls were buffer without enzyme for full effect and enzyme alone for no effect)). Details: Multiplex microsphere protease cleavage assay, at 10 µM, active compounds read high.
In the case of O=S(=O)(Nc1c(O)ccc2ccccc12)c1ccc(F)cc1, the inhibition is reported as inconclusive: -85.3%.
In the case of CSc1nc(=S)n(-c2ccc([N+](=O)[O-])cc2)c(C)c1C(C)=O, the inhibition is reported as inconclusive: -7.1%.
COc1ccc(/C=N/NS(=O)(=O)c2ccccc2)cc1OC was tested, and the inhibition was inactive: -5.7%.
With COc1ccc(NC(=O)CCC(=O)c2ccc(C(C)C)cc2)cc1 the inhibition was inconclusive: -5%.
Cc1n[nH]c(=S)n(/N=C/c2cccs2)c1=O was tested, and the inhibition was inconclusive: -15.6%.
For COc1ccccc1NC(=O)CSc1nncn1-c1ccccc1, the inhibition was inconclusive: 15.3%.
CC(=O)Nc1ccc(C(=O)N2CCCc3ccccc32)cc1 was tested, and the inhibition was inconclusive: -3%.
For COc1ccccc1N1CCN(/N=C/c2ccc([N+](=O)[O-])cc2)CC1, the inhibition was inconclusive: 33.4%.
Cc1nn(-c2ccccc2)c(Cl)c1/C=N/Nc1ccc(S(=O)(=O)Nc2ccccc2C(=O)O)cc1[N+](=O)[O-] was tested, and the inhibition was inactive: 2.5%.
CC(C)CN(CC(C)C)c1nc(N)c(C#N)c(CC#N)c1C#N was tested, and the inhibition was inactive: -4.7%.
For O=C(C1CCN(S(=O)(=O)c2c(Cl)cccc2Cl)CC1)N1CCCCCCC1, the inhibition was inconclusive: 14%.
With O=C(Cc1ccc(Br)cc1)NCCc1ccc(F)cc1 the inhibition was inconclusive: -0.9%.
In the case of N#Cc1ccc(CSc2nc(N)cc(N)n2)cc1, the inhibition is reported as inconclusive: -22.8%.
c1ccc2c(c1)CCN2CCN1CCc2ccccc21 was tested, and the inhibition was inconclusive: -82.4%.
Cc1coc2c(C)c3oc(=O)c(CCC(=O)NCCC(=O)O)c(C)c3cc12 was tested, and the inhibition was inactive: -15.6%.
In the case of CN(C)C(CNC(=O)CCc1nc2sc3c(c2c(=O)[nH]1)CCCC3)c1ccccc1 (stereo not drawn), the inhibition is reported as inactive: 11.6%.
CSc1ccc(CN(C)CC(=O)NCCc2ccccc2)cc1 was tested, and the inhibition was active: 39.5%.
For N#Cc1c(N)n(-c2ccc(N)cc2)c2nc3ccccc3nc12, the inhibition was inconclusive: -6.1%.
In the case of Cc1cc(C)c(C(=O)N2CCC(N3CCC(C(=O)NC(C)C)CC3)CC2)o1, the inhibition is reported as inconclusive: -5%.
For CCOP(=O)(Cc1cc(C(C)=O)c(C)o1)OCC, the inhibition was inconclusive: -11.4%.
In the case of Fc1ccc(/C=N/Nc2cc(N3CCOCC3)ncn2)cc1, the inhibition is reported as inconclusive: -21.3%.
With COc1ccccc1NC(=S)N1CCC(C(=O)c2ccc(F)cc2)CC1 the inhibition was inactive: -2.4%.
COc1ccc(N=C2SCC(c3ccc([N+](=O)[O-])cc3)=NN2CCO)cc1 was tested, and the inhibition was inconclusive: -13.8%.
For Cc1ccc(C(=O)NCCCN2CCOCC2)c(C)c1, the inhibition was inconclusive: -23.3%.
With Cc1cccc(Cl)c1NC(=O)N1CCCN(c2nc3ccc(Cl)cc3s2)CC1 the inhibition was inconclusive: -22.3%.
In the case of Cc1ccc(SCc2cc(=O)[nH]c(Nc3nc(C)c4cccc(C)c4n3)n2)cc1, the inhibition is reported as inactive: 2.6%.
For Cc1cc(Sc2ccc([N+](=O)[O-])cn2)ccc1Br, the inhibition was inconclusive: 40.5%.
For COc1ccc(CCNC(=O)COC(=O)c2ccc(Br)o2)cc1, the inhibition was inconclusive: 12.8%.
With NC(=O)C1CCN(Cc2nc(-c3cccs3)no2)CC1 the inhibition was inconclusive: -91.7%.
CC(C)Oc1ccc(C2NC(=O)c3ccccc3O2)cc1 (stereo not drawn) was tested, and the inhibition was inconclusive: 27.6%.
In the case of O=C(Nc1cccnc1Cl)c1cccc(S(=O)(=O)N2CCOCC2)c1, the inhibition is reported as inactive: -3.2%.
CCOC(=O)N1CCN(c2ccccc2O)CC1 was tested, and the inhibition was inconclusive: -0.7%.
O=C(Nc1ccc(F)cc1)Oc1ccc[nH]c1=O was tested, and the inhibition was inconclusive: 3.2%.
In the case of Cc1cccc(Nc2nc(N)nc(CCl)n2)c1C, the inhibition is reported as inconclusive: -39.1%.
With O=C(CN1CCCCC1)N/N=C/c1cccc(C(F)(F)F)c1 the inhibition was inconclusive: 29.8%.
In the case of NCCc1c[nH]c2ccc(OCc3ccccc3)cc12, the inhibition is reported as inconclusive: -44.4%.
With Cc1cc(C)n(CC(O)COc2ccc(Cl)cc2Cl)n1 (stereo not drawn) the inhibition was inconclusive: 52.6%.
With O=C(COc1ccccc1)NCC(c1ccco1)N1CCN(c2ccc(F)cc2)CC1 (stereo not drawn) the inhibition was inconclusive: 4.9%.
O=C(/C=C/c1ccco1)NCC1COc2ccccc2O1 (stereo not drawn) was tested, and the inhibition was inconclusive: -81.7%.
With O=P(Cc1cc(Br)cc(Br)c1OCCO)(c1ccccc1)c1ccccc1 the inhibition was inconclusive: 20.2%.
With CCCCCCCCCCOC(=O)c1csc2nnsc12 the inhibition was inactive: -3.3%.
For CC(C)N1CC=C2C(C#N)=C(N)C(C#N)(C#N)C(c3ccccc3)C2C1 (stereo not drawn), the inhibition was inconclusive: 47.1%.
In the case of O=S(=O)(Nc1ccc(OC(F)(F)F)cc1)c1cccc2nonc12, the inhibition is reported as inconclusive: -117%.
With CCOc1ccc(C(=O)NC2CC3CCCC(C2)N3Cc2ccccc2)cc1 (stereo not drawn) the inhibition was inconclusive: 1%.
With COc1cc(NC(N)=S)c(OC)cc1Cl the inhibition was inconclusive: 83.4%.
For Cc1cc(C)n(-c2ccc3nnc(C)n3n2)n1, the inhibition was inconclusive: -14.6%.
For CC(=O)N1CCN(c2ccc(NC(=O)c3cccc([N+](=O)[O-])c3)cc2)CC1, the inhibition was inconclusive: -32.5%.
For CCOC(=O)c1sc(N/N=C/c2cccc(C)c2)nc1C, the inhibition was inconclusive: 26.7%.
C=CCn1c(SCC(=O)Nc2ccc(F)cc2)nc2ccccc2c1=O was tested, and the inhibition was inconclusive: 4%.
Cc1cc(C(=O)Nc2cc(C(C)(C)C)on2)c(C)o1 was tested, and the inhibition was inconclusive: 166%.
COc1ccccc1Nc1nc(NCC(C)C)nc(N)c1[N+](=O)[O-] was tested, and the inhibition was inconclusive: -31.6%.
For Oc1c(Cl)cc(Cl)cc1/C=N/Nc1ncc(Br)cn1, the inhibition was inactive: -1.1%.
In the case of Fc1ccc(-c2ccc(CNCc3ccccn3)o2)cc1Cl, the inhibition is reported as inconclusive: -47.5%.
For COc1ccccc1N1CCN(C(=O)c2ccc3c(c2)CCN3S(C)(=O)=O)CC1, the inhibition was inconclusive: 22.3%.
CC(C)OC(=O)CSc1ncnc2c1cnn2Cc1ccccc1 was tested, and the inhibition was inconclusive: 5.5%.
For CC1(C)Cc2nc3sc4c(=O)n(CC(N)=O)cnc4c3cc2CO1, the inhibition was inactive: 3.2%.
CC1=NN2C(=N)/C(=C\c3cc(C)n(-c4ccc(C)cc4)c3C)C(=O)N=C2S1 was tested, and the inhibition was inconclusive: -62.5%.
For COC(=O)c1ccc(CNCC(=O)Nc2ccc(C(=O)OC)cc2)cc1, the inhibition was inactive: -4.1%.
Cc1ccc(NC(=O)CN(C)C(=O)c2ccccc2OCc2c(C)noc2C)cc1 was tested, and the inhibition was inconclusive: -22.6%.
In the case of COc1ccc(Nc2nc(N)c([N+](=O)[O-])c(N3CCOCC3)n2)cc1, the inhibition is reported as inconclusive: -130%.
With CCOC(=O)C1=CCN(S(=O)(=O)c2ccccc2C)C1c1ccc(C)cc1 (stereo not drawn) the inhibition was inactive: -1.6%.
For COc1ccc(/C=C2\CCC(C3CCCC3)C2=O)cc1 (stereo not drawn), the inhibition was inconclusive: -37.2%.
NC(=S)N/N=C1\c2ccccc2-c2c(C(=O)O)cccc21 was tested, and the inhibition was inconclusive: 11.3%.
In the case of O=C(NCc1ccccc1)c1ccccc1NC(=O)C1CCCCC1, the inhibition is reported as inactive: -0.6%.
COc1ccc(NC(=O)C2CC(c3ccccc3O)=NO2)cc1OC (stereo not drawn) was tested, and the inhibition was inconclusive: -13.9%.
In the case of CCCC(=O)Nc1ccc(C2C(=O)c3ccccc3C2=O)cc1, the inhibition is reported as inconclusive: 10.9%.
For C=CCNC(=O)O/N=C/c1csc([N+](=O)[O-])c1, the inhibition was inconclusive: 10.4%.
With O=C(/C=C/c1ccccc1)Nc1cccnc1Cl the inhibition was inconclusive: -28.6%.
For Cc1ccc(CNC(=O)c2cn(C)c3ccc(S(=O)(=O)N4CCOCC4)cc3c2=O)cc1, the inhibition was inactive: 1%.
NNC(=O)c1[nH]c2ccc(Cl)cc2c1-c1ccccc1 was tested, and the inhibition was inconclusive: -47.4%.
With COC(=O)c1cc(C)cc(=O)o1 the inhibition was inconclusive: 16.9%.
With CC(NC(=O)OCc1ccccc1)c1ccccc1 (stereo not drawn) the inhibition was inconclusive: -22.9%.
For CC(C)(C)c1ccc(C(=O)N2CCCC2)s1, the inhibition was inconclusive: -11.8%.
With CCOc1ccc(CCN2C(=O)C(=O)N([C@@H](CC(C)C)CN3CCC[C@H]3CN3C(=O)C(=O)NC[C@@H]3CC(C)C)C[C@@H]2Cc2ccc(O)cc2)cc1 the inhibition was inactive: 7.1%.
CCOc1cc(/C=N/Nc2cc(C)nc3ccc(C)cc23)ccc1O was tested, and the inhibition was inconclusive: 19.5%.
With CCOc1ccccc1NC(=O)CSc1nnc2ccc(-c3ccncc3)nn12 the inhibition was inactive: 0.8%.
CN(C)CCCn1c(N)c(C#N)c2nc3ccccc3nc21 was tested, and the inhibition was inconclusive: 69.4%.
With O=C(Nc1nccs1)C(=O)c1c[nH]c2ccccc12 the inhibition was inconclusive: 5.6%.
With O=C(NCC(c1ccco1)N1CCc2ccccc21)c1ccccc1F (stereo not drawn) the inhibition was inconclusive: -7.1%.
In the case of COc1ccccc1/C=C/C(=O)NC1CC2CCC1C2 (stereo not drawn), the inhibition is reported as inconclusive: -8.8%.
COc1ccc(/C=N/n2c(-c3cc(C)[nH]n3)n[nH]c2=S)cc1 was tested, and the inhibition was inconclusive: -71.3%.
Cc1sc2ncnc(N3CCC(C(=O)Nc4ccc(Br)cc4Br)CC3)c2c1C was tested, and the inhibition was inconclusive: -1.8%.
O=C(Cc1ccccc1)c1ccc(N2CCOCC2)cc1 was tested, and the inhibition was inactive: 6.5%.
COc1ccc(C(=O)Nc2ccc3c(c2)nc(CCNC(C)=O)n3C)cc1 was tested, and the inhibition was inactive: -1.5%.
O=C(Nc1cccc2ncccc12)C12CC3CC(CC(C3)C1)C2 was tested, and the inhibition was inactive: -11.3%.
In the case of CCCCS(=O)(=O)Nc1ccc(N2CCOCC2)c(S(=O)(=O)N2CCOCC2)c1, the inhibition is reported as inactive: 1.8%.
For O=P(/C(=N/O)N1CCOCC1)(N1CCOCC1)N1CCOCC1, the inhibition was inconclusive: -2.1%.
Cc1cccc(NCC(=O)N/N=C\c2ccc[nH]2)c1 was tested, and the inhibition was inconclusive: -1.6%.
For Cc1ccc2c(c1)C(=C(C#N)C#N)C(=O)N2CCN1CCOCC1, the inhibition was inconclusive: 2.5%.
For COc1ccc(NC(=O)Nc2nnc(Cc3ccc(OC)c(OC)c3)s2)cc1, the inhibition was inconclusive: 11.2%.
With CC(C)OC(=O)Nc1ccc2c(c1)N(C(=O)N1CCN(C)CC1)c1ccccc1CC2 the inhibition was inconclusive: -22.1%.
With Cc1ccc(SCCC(=O)OCC(=O)Nc2ccc(C(N)=O)cc2)cc1 the inhibition was inactive: 2.6%.
In the case of CCOP(=O)(OCC)/C(C#N)=C/c1ccc([N+](=O)[O-])cc1, the inhibition is reported as inconclusive: -66.7%.
